{"source": "patent US20230279351A1", "about": "“ARTIFICIAL ANTIGEN-SPECIFIC IMMUNOREGULATORY T (AIRT) CELLS” (Seattle Children's Hospital (dba Seattle Children's …, priority 2019, published 2023)", "system": "CISC cell", "experiment": "In vivo rapamycin contact, CISC cell persistence", "details": "in vivo rapamycin contact (FIG. 109)", "note": "At least one compound was matched to its structure with a doubt left."}
{"smiles": "CO[C@H]1C[C@@H]2CC[C@@H](C)[C@@](O)(O2)C(=O)C(=O)N2CCCC[C@H]2C(=O)O[C@H]([C@H](C)C[C@@H]2CC[C@@H](O)[C@H](OC)C2)CC(=O)[C@H](C)/C=C(\\C)[C@@H](O)[C@@H](OC)C(=O)[C@H](C)C[C@H](C)/C=C/C=C/C=C/1C", "note": "[Rapamycin]", "values": [{"measurement": "CISC cell persistence", "result": "promotes CISC cell persistence"}]}
